PubChem BioAssay AID330 (DTP/NCI, 2004)
The list does not hold the whole screen: it is rich in T/C values a quarter to a half above the control, in often repeated tests (any T/C) and in doses without a T/C. Further doses and runs are listed elsewhere. T/C gives the treated animals as a percentage of the vehicle group. Some doses have a count of surviving animals in place of a T/C: the source files T/C as zero there, which appears to mark a toxic dose or a test without result, not a measured value. Some doses without a T/C left all or most animals alive at the check, yet need not have been tolerated: the source hardly ever lists a survival T/C far under the control, and the zero likely stands for such cases as well. Survivors were counted at the toxicity check, usually on the fifth day, unless a day is given; later deaths do not show. Schedules are NCI's codes, taken here to give the interval after Q, in days (D) or hours (H), and the number of doses after X. Where survival is the endpoint, this PubChem deposit counts one and a half times the control or more as active, and values a quarter to a half above the control carry no call in these data; other NCI protocols may use other cut-offs. Some entries hold several experiments; the results are listed from low to high.

Test system: P388 leukemia ip, CD2F1 mice, survival T/C
Test: NCI In Vivo Anticancer Drug Screen. Data for tumor model P388 Leukemia (intraperitoneal) in CD2F1 (CDF1) mice
Settings: T/C endpoint: median survival time, higher T/C = longer survival
[1] = dose: 6.25 mg/kg/injection, schedule: Q01DX009 (ip), vehicle: saline
[2] = dose: 100.0 mg/kg/injection, schedule: Q01DX009 (ip), vehicle: saline
[3] = dose: 200.0 mg/kg/injection, schedule: Q01DX009 (ip), vehicle: saline
[4] = dose: 200.0 mg/kg/injection, schedule: Q01DX001 (ip), vehicle: saline with Tween-80
[5] = dose: 400.0 mg/kg/injection, schedule: Q01DX001 (ip), vehicle: saline with Tween-80
[6] = dose: 200.0 mg/kg/injection, schedule: Q01DX005 (ip), vehicle: Klucel (hydroxypropylcellulose) (HPC)
[7] = dose: 60.0 mg/kg/injection, schedule: Q01DX005 (ip), vehicle: saline with Tween-80
[8] = dose: 120.0 mg/kg/injection, schedule: Q01DX005 (ip), vehicle: saline with Tween-80
[9] = dose: 240.0 mg/kg/injection, schedule: Q01DX005 (ip), vehicle: saline with Tween-80
[10] = dose: 400.0 mg/kg/injection, schedule: Q04DX003 (ip), vehicle: Klucel (hydroxypropylcellulose) (HPC)
[11] = dose: 100.0 mg/kg/injection, schedule: Q01DX009 (ip), vehicle: water
[12] = dose: 25.0 mg/kg/injection, schedule: Q01DX009 (ip), vehicle: water
[13] = dose: 50.0 mg/kg/injection, schedule: Q01DX009 (ip), vehicle: water
[14] = dose: 50.0 mg/kg/injection, schedule: Q01DX005 (ip), vehicle: Klucel (hydroxypropylcellulose) (HPC)

CCCCCCCCCCCC[N+]1([O-])CCOCC1
survivor count [1]: 6 of 6 | survivor count [2]: 0 of 6 | survivor count [3]: 0 of 6

Cc1cc2ncc(-c3ccccc3)nc2cc1C
survivor count [4]: 6 of 6 | survivor count [5]: 6 of 6

CC(=O)/C(C(=N)c1nc(C)c(C(C)=O)c(C(N)=O)n1)=C(\C)O
survivor count [6]: 6 of 6

CC(=O)Oc1ccc[nH]c1=O
T/C (dose: 264.0 mg/kg/injection, schedule: Q01DX009 (ip), vehicle: saline with Tween-80): 127 % of control | T/C (dose: 300.0 mg/kg/injection, schedule: Q01DX009 (ip), vehicle: saline): 145 % of control | T/C (dose: 400.0 mg/kg/injection, schedule: Q01DX009 (ip), vehicle: saline with Tween-80): 131 and 140 % of control | T/C (dose: 400.0 mg/kg/injection, schedule: Q01DX009 (ip), vehicle: saline): 142 % of control | survivor count (dose: 600.0 mg/kg/injection, schedule: Q01DX009 (ip), vehicle: saline): 5 of 6 | survivor count (dose: 800.0 mg/kg/injection, schedule: Q01DX009 (ip), vehicle: saline sonified): 4 of 6 | survivor count (dose: 1000.0 mg/kg/injection, schedule: Q01DX009 (ip), vehicle: saline sonified): 1 of 6 | survivor count (dose: 1200.0 mg/kg/injection, schedule: Q01DX009 (ip), vehicle: saline sonified): 0 of 6

CCOC(=O)C1C2CCC(O2)C1C#N (stereo not given)
survivor count [7]: 3 of 6 | survivor count [8]: 0 of 6 | survivor count [9]: 0 of 6

N=C(N)SCCN1C(=O)NC(c2ccccc2)(c2ccccc2)C1=O
survivor count [10]: 2 of 6

CC1(C)N=C(N)N=C(N)N1c1ccc(CCCCc2ccc(S(=O)(=O)F)cc2)cc1
T/C (dose: 8.0 mg/kg/injection, schedule: Q01DX009 (ip), vehicle: saline sonified): 138 % of control | T/C (dose: 12.5 mg/kg/injection, schedule: Q01DX009 (ip), vehicle: saline with Tween-80): 140 % of control | T/C (dose: 25.0 mg/kg/injection, schedule: Q01DX009 (ip), vehicle: saline with Tween-80): 136 % of control | survivor count (dose: 100.0 mg/kg/injection, schedule: Q04DX003 (ip), vehicle: saline with Tween-80): 5 of 6 | survivor count (dose: 200.0 mg/kg/injection, schedule: Q04DX003 (ip), vehicle: saline with Tween-80): 0 of 6

O=S(=O)(OI(O)c1ccccc1)c1ccccc1
survivor count [11]: 5 of 6 | survivor count (dose: 200.0 mg/kg/injection, schedule: Q01DX009 (ip), vehicle: water): 1 of 6

FC(F)(F)c1cc(NC(=S)SC2CCCCC2)ccc1Cl
T/C [3]: 127 % of control

Nc1nc2ccc(Br)cc2s1
survivor count (dose: 50.0 mg/kg/injection, schedule: Q01DX009 (ip), vehicle: saline): 6 of 6 | survivor count [3]: 6 of 6 | survivor count (dose: 200.0 mg/kg/injection, schedule: Q01DX009 (ip), vehicle: suspension in saline): 6 of 6

O=NNc1cncc(Sc2ccccc2)n1
survivor count (dose: 100.0 mg/kg/injection, schedule: Q01DX008 (ip), vehicle: water): 6 of 6 | survivor count (dose: 200.0 mg/kg/injection, schedule: Q01DX008 (ip), vehicle: water): 2 of 6

O=[N+]([O-])c1ccc(-c2csc(=[N+]3CCCCC3)s2)cc1
T/C (dose: 12.5 mg/kg/injection, schedule: Q01DX009 (ip), vehicle: water): 126 % of control | T/C [12]: 133 and 137 % of control | T/C [13]: 140 % of control | survivor count [13]: 5 of 6 | survivor count [11]: 1 of 6

CCOP(=O)(O)C1CCCC(C)[N-]1.CCOP(=O)(O)C1CCCC(C)[N-]1.[Cu+2] (stereo not given)
survivor count (dose: 50.0 mg/kg/injection, schedule: Q04DX003 (ip), vehicle: Klucel (hydroxypropylcellulose) (HPC)): 0 of 6 | survivor count (dose: 100.0 mg/kg/injection, schedule: Q04DX003 (ip), vehicle: Klucel (hydroxypropylcellulose) (HPC)): 0 of 6 | survivor count (dose: 200.0 mg/kg/injection, schedule: Q04DX003 (ip), vehicle: Klucel (hydroxypropylcellulose) (HPC)): 0 of 6 | survivor count [10]: 0 of 6

O=C(O)C1C(C(=O)O)C2(Cl)C(Cl)=C(Cl)C1(Cl)C2(Cl)Cl.[Cu+2] (stereo not given)
survivor count (dose: 200.0 mg/kg/injection, schedule: Q01DX001 (ip), vehicle: saline sonified): 0 of 6

O=C(CCl)N1c2ccccc2Sc2ccc(Cl)cc21
T/C [12]: 125 % of control | T/C [13]: 125 % of control

C[CH2][Pb]([CH2]C)([CH2]C)[O]C(=O)CBr
T/C (dose: 6.0 mg/kg/injection, schedule: Q01DX009 (ip), vehicle: saline): 126 % of control

O=S1(=O)N=C([O-])c2ccc(C[N+]3(CCCl)CCN(CCCl)CC3)cc21
survivor count (dose: 50.0 mg/kg/injection, schedule: Q01DX009 (ip), vehicle: DMSO): 6 of 6 | survivor count (dose: 200.0 mg/kg/injection, schedule: Q01DX009 (ip), vehicle: DMSO): 0 of 6

BrCc1ccccc1C[P+](c1ccccc1)(c1ccccc1)c1ccccc1
survivor count [1]: 5 of 6

Cc1cc2cccc(Br)c(=O)c2o1
survivor count (dose: 100.0 mg/kg/injection, schedule: Q01DX001 (ip), vehicle: saline with Tween-80): 2 of 6 | survivor count [4]: 0 of 6 | survivor count [5]: 0 of 6

CC(CN(C)C)C(=O)/C=C/c1ccc(Cl)c(Cl)c1 (stereo not given)
survivor count [8]: 0 of 6 | survivor count [9]: 0 of 6

CN(C)CCCC1(c2ccccc2)SC(C)(C)c2ccc(Cl)cc21 (stereo not given)
survivor count (dose: 100.0 mg/kg/injection, schedule: Q01DX001 (ip), vehicle: Klucel (hydroxypropylcellulose) (HPC)): 1 of 6

CN1c2ccccc2SC2C(c3ccccc3)=NOC21 (stereo not given)
survivor count (dose: 15.0 mg/kg/injection, schedule: Q01DX005 (ip), vehicle: saline with Tween-80): 6 of 6 | survivor count [7]: 6 of 6 | survivor count [8]: 6 of 6

COc1c(C)n(CCCCCCn2ccc(=O)c(OC)c2C)ccc1=O
survivor count (dose: 400.0 mg/kg/injection, schedule: Q01DX005 (ip), vehicle: Klucel (hydroxypropylcellulose) (HPC)): 2 of 6

N=Cc1c(O)n(C2CCCCC2)c(=O)[nH]c1=O
survivor count (dose: 200.0 mg/kg/injection, schedule: Q01DX009 (ip), vehicle: saline with Tween-80): 6 of 6

NNS(=O)(=O)c1cccc([N+](=O)[O-])c1
survivor count (dose: 100.0 mg/kg/injection, schedule: Q01DX009 (ip), vehicle: other): 3 of 6 | survivor count (dose: 200.0 mg/kg/injection, schedule: Q01DX009 (ip), vehicle: other): 0 of 6

CCN(CC)CCOC(=O)c1ccc(N)c2ccccc12
survivor count (dose: 200.0 mg/kg/injection, schedule: Q01DX005 (ip), vehicle: saline with Tween-80): 0 of 6

[Br][Ga]([Br])[Br]
survivor count [2]: 5 of 6 | survivor count (dose: 200.0 mg/kg/injection, schedule: Q04DX003 (ip), vehicle: saline sonified): 6 of 6 | survivor count (dose: 400.0 mg/kg/injection, schedule: Q04DX003 (ip), vehicle: saline sonified): 6 of 6

O=C(c1nc2ccccc2[nH]1)N1CCN(c2ccccc2)CC1
survivor count [14]: 5 of 6

CC(=O)OCC1OC(n2nc(-c3ccccc3)c(=O)n(-c3ccccc3)c2=O)C(OC(C)=O)C(OC(C)=O)C1OC(C)=O (stereo not given)
survivor count (dose: 400.0 mg/kg/injection, schedule: Q04DX003 (ip), vehicle: saline with Tween-80): 3 of 6

N=C(N)c1ccc(N=Nc2ccc(O)c3c2ccc[n+]3[O-])cc1
survivor count [14]: 2 of 6 | survivor count (dose: 100.0 mg/kg/injection, schedule: Q01DX005 (ip), vehicle: Klucel (hydroxypropylcellulose) (HPC)): 0 of 6 | survivor count [6]: 0 of 6

NC(=S)c1ccc(N)cc1
survivor count [10]: 2 of 6
